# ± gives the standard deviation of the averaged measurements. The list shows a part of the results.
# Assays:
# Test in all cases: NP40-soluble protein abundance relative to vehicle (solubility fold change) (ratio); higher = more soluble protein in presence of GTP
# [1] = target: T1, UniProt Q9H0G5
# T1 sequence (whole entry): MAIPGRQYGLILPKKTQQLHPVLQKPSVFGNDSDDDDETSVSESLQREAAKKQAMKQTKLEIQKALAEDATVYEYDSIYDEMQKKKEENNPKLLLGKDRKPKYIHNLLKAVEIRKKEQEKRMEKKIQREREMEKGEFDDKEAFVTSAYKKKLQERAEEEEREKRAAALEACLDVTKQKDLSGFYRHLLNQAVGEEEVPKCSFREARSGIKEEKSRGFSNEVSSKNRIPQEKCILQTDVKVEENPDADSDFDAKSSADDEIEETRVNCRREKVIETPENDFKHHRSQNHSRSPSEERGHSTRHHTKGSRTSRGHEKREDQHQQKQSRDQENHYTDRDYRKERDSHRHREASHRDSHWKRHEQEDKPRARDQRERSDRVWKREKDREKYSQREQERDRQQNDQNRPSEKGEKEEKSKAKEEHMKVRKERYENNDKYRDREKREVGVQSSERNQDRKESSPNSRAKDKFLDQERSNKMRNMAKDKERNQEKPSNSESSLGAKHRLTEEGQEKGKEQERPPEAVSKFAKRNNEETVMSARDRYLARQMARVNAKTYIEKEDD
# Method in brief: (§1)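 Jurkat crude lysate (Dounce-homogenised) was treated with eight concentrations from 0.1 to 10 mM for 10 min at room temperature, then 3 min at 37 °C. It was solubilised with 0.8% NP40 and benzonase (60 min, 4 °C) and ultracentrifuged, and the supernatant was TMT-labelled for LC-MS/MS. Intensities were vsn-normalised, and the value is the fold change against the NP40-processed vehicle per replicate, from three independent experiments.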
# [2] = target: T2, UniProt Q9H0X4
# T2 sequence (whole entry): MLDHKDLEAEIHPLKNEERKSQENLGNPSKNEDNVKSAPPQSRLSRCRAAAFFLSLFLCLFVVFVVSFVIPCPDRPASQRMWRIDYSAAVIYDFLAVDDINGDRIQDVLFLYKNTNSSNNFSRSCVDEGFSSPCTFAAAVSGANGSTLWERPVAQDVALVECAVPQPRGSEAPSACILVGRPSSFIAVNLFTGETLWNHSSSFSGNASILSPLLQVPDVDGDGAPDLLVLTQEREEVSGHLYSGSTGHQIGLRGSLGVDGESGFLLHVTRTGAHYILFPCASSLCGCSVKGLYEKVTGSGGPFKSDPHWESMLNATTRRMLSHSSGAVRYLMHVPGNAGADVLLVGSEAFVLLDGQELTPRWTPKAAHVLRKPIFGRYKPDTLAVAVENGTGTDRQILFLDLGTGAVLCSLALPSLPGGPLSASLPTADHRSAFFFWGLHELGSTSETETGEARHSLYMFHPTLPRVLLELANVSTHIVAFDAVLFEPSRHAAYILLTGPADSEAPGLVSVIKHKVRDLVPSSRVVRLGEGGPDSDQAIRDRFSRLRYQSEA
# Method in brief: as §1
# [3] = target: T3, UniProt Q9H270 and related entries
# T3 sequence (whole entry): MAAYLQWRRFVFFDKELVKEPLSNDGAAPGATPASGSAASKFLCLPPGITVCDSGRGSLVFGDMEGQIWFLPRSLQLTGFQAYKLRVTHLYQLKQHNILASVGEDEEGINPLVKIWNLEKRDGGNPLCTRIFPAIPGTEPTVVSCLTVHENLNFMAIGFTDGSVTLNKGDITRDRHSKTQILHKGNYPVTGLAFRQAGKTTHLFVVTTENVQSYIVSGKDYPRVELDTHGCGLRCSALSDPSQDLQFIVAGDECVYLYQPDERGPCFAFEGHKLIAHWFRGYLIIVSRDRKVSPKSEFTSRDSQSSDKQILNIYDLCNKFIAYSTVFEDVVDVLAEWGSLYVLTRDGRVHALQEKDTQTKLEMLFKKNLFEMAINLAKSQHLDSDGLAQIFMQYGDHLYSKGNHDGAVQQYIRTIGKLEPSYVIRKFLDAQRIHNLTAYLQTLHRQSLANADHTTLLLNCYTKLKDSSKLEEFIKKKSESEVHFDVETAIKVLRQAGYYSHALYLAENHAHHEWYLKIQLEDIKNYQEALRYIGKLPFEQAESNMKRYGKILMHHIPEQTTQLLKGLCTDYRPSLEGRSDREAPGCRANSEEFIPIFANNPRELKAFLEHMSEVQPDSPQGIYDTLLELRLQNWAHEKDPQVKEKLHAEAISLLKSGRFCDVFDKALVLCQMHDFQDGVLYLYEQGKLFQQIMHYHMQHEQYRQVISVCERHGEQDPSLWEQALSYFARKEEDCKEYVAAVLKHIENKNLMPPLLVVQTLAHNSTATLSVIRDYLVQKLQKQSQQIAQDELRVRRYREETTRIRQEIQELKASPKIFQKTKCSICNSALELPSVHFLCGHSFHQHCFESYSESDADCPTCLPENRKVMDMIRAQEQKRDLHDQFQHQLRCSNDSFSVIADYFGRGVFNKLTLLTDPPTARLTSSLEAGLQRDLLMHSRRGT
# Method in brief: as §1
# [4] = target: T4, UniProt Q9H4L7 and related entries
# T4 sequence (whole entry): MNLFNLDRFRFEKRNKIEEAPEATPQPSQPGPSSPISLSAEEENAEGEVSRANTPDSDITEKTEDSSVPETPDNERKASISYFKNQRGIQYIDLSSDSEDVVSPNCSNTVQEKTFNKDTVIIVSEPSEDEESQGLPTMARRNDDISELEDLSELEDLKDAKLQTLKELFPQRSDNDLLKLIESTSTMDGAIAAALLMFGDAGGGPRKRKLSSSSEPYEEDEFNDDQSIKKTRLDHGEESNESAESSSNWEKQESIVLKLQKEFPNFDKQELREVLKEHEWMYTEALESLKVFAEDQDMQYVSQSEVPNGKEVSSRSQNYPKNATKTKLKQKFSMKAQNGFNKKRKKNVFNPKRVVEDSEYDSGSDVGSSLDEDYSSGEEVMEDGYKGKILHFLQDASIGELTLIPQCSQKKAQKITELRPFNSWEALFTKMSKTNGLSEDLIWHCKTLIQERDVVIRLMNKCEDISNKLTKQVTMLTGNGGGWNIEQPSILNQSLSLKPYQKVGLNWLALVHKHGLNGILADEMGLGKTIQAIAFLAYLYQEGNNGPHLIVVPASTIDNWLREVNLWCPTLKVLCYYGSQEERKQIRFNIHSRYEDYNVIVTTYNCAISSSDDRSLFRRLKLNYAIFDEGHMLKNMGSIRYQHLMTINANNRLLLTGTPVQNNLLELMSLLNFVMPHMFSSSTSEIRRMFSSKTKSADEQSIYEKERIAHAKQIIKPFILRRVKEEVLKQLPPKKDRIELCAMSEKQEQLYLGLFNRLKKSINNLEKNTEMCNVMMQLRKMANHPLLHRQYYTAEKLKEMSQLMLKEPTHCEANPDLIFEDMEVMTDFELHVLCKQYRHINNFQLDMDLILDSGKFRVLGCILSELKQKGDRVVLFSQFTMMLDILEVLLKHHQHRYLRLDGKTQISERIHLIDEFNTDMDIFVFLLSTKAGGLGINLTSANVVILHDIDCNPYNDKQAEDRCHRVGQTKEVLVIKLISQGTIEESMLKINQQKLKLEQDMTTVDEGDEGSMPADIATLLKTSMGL
# Method in brief: as §1
# [5] = target: T5, UniProt Q9H993
# T5 sequence (whole entry): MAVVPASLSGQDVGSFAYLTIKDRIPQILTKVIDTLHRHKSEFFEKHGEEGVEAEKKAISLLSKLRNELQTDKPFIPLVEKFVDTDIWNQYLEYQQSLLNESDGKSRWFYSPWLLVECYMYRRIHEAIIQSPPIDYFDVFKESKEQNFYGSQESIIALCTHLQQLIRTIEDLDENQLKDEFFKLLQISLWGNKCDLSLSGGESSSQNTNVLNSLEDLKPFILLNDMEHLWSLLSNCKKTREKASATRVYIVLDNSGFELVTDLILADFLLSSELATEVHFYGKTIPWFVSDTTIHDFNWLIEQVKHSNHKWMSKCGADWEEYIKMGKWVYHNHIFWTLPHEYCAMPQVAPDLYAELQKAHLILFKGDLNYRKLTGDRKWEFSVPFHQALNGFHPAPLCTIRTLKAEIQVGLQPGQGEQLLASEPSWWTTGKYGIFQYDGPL
# Method in brief: as §1
smiles,measurement,setting,value
Nc1nc2c(ncn2[C@@H]2O[C@H](COP(=O)(O)OP(=O)(O)OP(=O)(O)O)[C@@H](O)[C@H]2O)c(=O)[nH]1 [guanosine triphosphate],NP40-soluble protein abundance,[1]; concentration: 4mM,1.04 ± 0.045
same,NP40-soluble protein abundance,[1]; concentration: 6mM,1.09 ± 0.074
same,NP40-soluble protein abundance,[1]; concentration: 8mM,1.18 ± 0.02
same,NP40-soluble protein abundance,[1]; concentration: 10mM,1.21 ± 0.04
same,NP40-soluble protein abundance,[2]; concentration: 0.1mM,0.928 ± 0.043
same,NP40-soluble protein abundance,[2]; concentration: 0.5mM,0.862 ± 0.016
same,NP40-soluble protein abundance,[2]; concentration: 1mM,0.937 ± 0.053
same,NP40-soluble protein abundance,[2]; concentration: 2mM,0.882 ± 0.097
same,NP40-soluble protein abundance,[2]; concentration: 4mM,0.908 ± 0.083
same,NP40-soluble protein abundance,[2]; concentration: 6mM,0.926 ± 0.096
same,NP40-soluble protein abundance,[2]; concentration: 8mM,0.922 ± 0.036
same,NP40-soluble protein abundance,[2]; concentration: 10mM,0.961 ± 0.12
same,NP40-soluble protein abundance,[3]; concentration: 0.1mM,1.14 ± 0.15
same,NP40-soluble protein abundance,[3]; concentration: 0.5mM,1.13 ± 0.16
same,NP40-soluble protein abundance,[3]; concentration: 1mM,1.04 ± 0.15
same,NP40-soluble protein abundance,[3]; concentration: 2mM,1.07 ± 0.13
same,NP40-soluble protein abundance,[3]; concentration: 4mM,1.08 ± 0.15
same,NP40-soluble protein abundance,[3]; concentration: 6mM,1.06 ± 0.15
same,NP40-soluble protein abundance,[3]; concentration: 8mM,1.05 ± 0.11
same,NP40-soluble protein abundance,[3]; concentration: 10mM,1.01 ± 0.14
same,NP40-soluble protein abundance,[4]; concentration: 0.1mM,0.994 ± 0.042
same,NP40-soluble protein abundance,[4]; concentration: 0.5mM,1.008 ± 0.0075
same,NP40-soluble protein abundance,[4]; concentration: 1mM,0.977 ± 0.044
same,NP40-soluble protein abundance,[4]; concentration: 2mM,0.959 ± 0.021
same,NP40-soluble protein abundance,[4]; concentration: 4mM,0.943 ± 0.06
same,NP40-soluble protein abundance,[4]; concentration: 6mM,0.966 ± 0.038
same,NP40-soluble protein abundance,[4]; concentration: 8mM,0.992 ± 0.034
same,NP40-soluble protein abundance,[4]; concentration: 10mM,0.9678 ± 0.0068
same,NP40-soluble protein abundance,[5]; concentration: 0.1mM,0.96 ± 0.042
same,NP40-soluble protein abundance,[5]; concentration: 0.5mM,0.97 ± 0.028
same,NP40-soluble protein abundance,[5]; concentration: 1mM,0.913 ± 0.066
same,NP40-soluble protein abundance,[5]; concentration: 2mM,0.869 ± 0.062
same,NP40-soluble protein abundance,[5]; concentration: 4mM,0.861 ± 0.1
same,NP40-soluble protein abundance,[5]; concentration: 6mM,0.862 ± 0.059

# Not a retest: an excerpt of the list.
smiles,measurement,setting,value
Nc1nc2c(ncn2[C@@H]2O[C@H](COP(=O)(O)OP(=O)(O)OP(=O)(O)O)[C@@H](O)[C@H]2O)c(=O)[nH]1 [guanosine triphosphate],NP40-soluble protein abundance,[4]; concentration: 1mM,0.977 ± 0.044
same,NP40-soluble protein abundance,[4]; concentration: 2mM,0.959 ± 0.021

# From the supplement of paper PMC6411743
